{"source": "PubChem BioAssay AID540256", "about": "(National Center for Advancing Translational Sciences (NCATS), 2011)", "note": "Among all 300,000 compounds or so, about 3,700 (1.2%) were called active. The shares of active, inactive and inconclusive entries below differ from those in the screen. The call rests on the fitted dose curve; tested in HEK293 cells. Potencies of inconclusive entries are doubtful fits and often do not repeat. Potency means the concentration at half of the fitted maximal effect."}
{"assay": "qHTS for Inhibitors of binding or entry into cells for Lassa Virus; further: nearly all actives have a fitted effect of over 50% in size", "conditions": "Lassa virus pseudotype entry inhibition, cell reporter; series mostly up to 37.9 µM"}
{"smiles": "COc1ccc(CCCc2nnc(SCC(=O)Nc3nccs3)n2C)cc1C", "Potency": "active: 20.6 µM"}
{"smiles": "O=C(NCc1ccc2c(c1)OCO2)c1nc(S(=O)(=O)Cc2ccccc2)ncc1Cl", "Potency": "inconclusive: 10 µM [inhibitor, partial curve, poor fit]"}
{"smiles": "Cc1ccc(NC(=O)c2ccc(Cl)cc2[N+](=O)[O-])nc1", "Potency": "inconclusive: 6.31 µM [inhibitor, single point]"}
{"smiles": "CCc1ccc(NS(=O)(=O)c2c(C(=O)N3CCCCCC3)c(C)n(C)c2C)cc1", "Potency": "inconclusive: 7.08 µM [inhibitor, partial curve, poor fit]"}
{"smiles": "CCOc1cc(NC(=S)Nc2ccccc2)c(OCC)cc1NC(=O)c1ccc(OC)cc1", "Potency": "inconclusive: 29.1 µM [inhibitor, single point]"}
{"smiles": "CCNc1nc(NC(C)C)nc(N(C#N)CCOc2ccccc2)n1", "Potency": "inactive"}
{"smiles": "COc1cc(OC)c(NC(=O)CCn2cnc3onc(-c4ccc(F)cc4)c3c2=O)cc1Cl", "Potency": "inconclusive: 3.55 µM [activator, single point]"}
{"smiles": "Cc1ccc2c(C)c(C)c(=O)n(C)c2c1", "Potency": "inconclusive: 3.98 µM [activator, full curve, poor fit]"}
{"smiles": "CCOc1ccc(NC2c3ccccc3C(=O)N2Cc2ccco2)cc1", "note": "(stereo not drawn)", "Potency": "inconclusive: 14.6 µM [inhibitor, partial curve]"}
{"smiles": "O=C(O)/C=C\\C(=O)Nc1cccc(NC(=O)c2ccccc2)c1", "Potency": "inactive"}
{"smiles": "COc1ccc(CCNC(=O)C(=O)NCC2CCCO2)cc1", "note": "(stereo not drawn)", "Potency": "inactive"}
{"smiles": "CCOC(=O)C1CCN(C(=O)CCCOc2ccccc2)CC1", "Potency": "inactive"}
{"smiles": "OC(CN1CCOCC1)(c1ccccc1)c1ccccn1", "note": "(stereo not drawn)", "Potency": "inconclusive: 35.5 µM [inhibitor, single point]"}
{"smiles": "Cc1ccccc1S(=O)(=O)Cc1ccc(C(=O)NC2CCCCCC2)o1", "Potency": "inconclusive: 20 µM [inhibitor, partial curve, poor fit]"}
{"smiles": "CCn1cc(C(=O)OCC(=O)Nc2cc(Cl)ccc2OC)c(=O)c2ccc(C)nc21", "Potency": "inconclusive: 0.562 µM [activator, full curve, poor fit]"}
{"smiles": "COc1ccc(CCNC(=O)Cn2ncc3c(C)n(Cc4ccccc4F)c(C)c3c2=O)cc1OC", "Potency": "inactive"}
{"smiles": "Cc1c(C(N)=O)nnn1-c1ccc(Br)cc1", "Potency": "inactive"}
{"smiles": "COc1ccc(CCNC(=O)c2coc3ccccc3c2=O)cc1OC", "Potency": "inconclusive: 20 µM [inhibitor, partial curve, poor fit]"}
{"smiles": "CC(C)(C)NC(=O)CSc1nc(-c2ccc(F)cc2)cs1", "Potency": "inconclusive: 15.8 µM [inhibitor, partial curve, poor fit]"}
{"smiles": "O=C(NCc1ccccc1)C(c1ccc(O)cc1)N(C(=O)Cn1nnc(-c2cccs2)n1)c1ccc2c(c1)OCCO2", "note": "(stereo not drawn)", "Potency": "inconclusive: 18.3 µM [inhibitor, single point]"}
{"smiles": "O=C(CN1C(=O)NC(c2ccccc2)(c2ccccc2)C1=O)NCC(=O)Nc1ccc(F)cc1", "Potency": "inactive"}
{"smiles": "CCc1ccc(NC(=O)CSc2nccn2C2CCCC2)cc1", "Potency": "inactive"}
{"smiles": "Cc1cc(=O)n(CC(=O)NCCC(C)C)c2c1c(C)nn2C", "Potency": "inconclusive: 5.62 µM [activator, full curve]"}
{"smiles": "COc1cc(-c2noc(CCCC(=O)Nc3ccc(C(N)=O)cc3)n2)cc(OC)c1OC", "Potency": "inactive"}
{"smiles": "Cc1oc(-c2ccc(C(=O)NCc3ccc(N(C)C)cc3)cc2)nc1COc1ccccc1", "Potency": "inconclusive: 6.31 µM [inhibitor, single point]"}
{"smiles": "Cc1cc(S(=O)(=O)N2CCN(CC(=O)N(C)Cc3ccccc3)CC2)ccc1Br", "Potency": "inconclusive: 0.631 µM [inhibitor, partial curve, poor fit]"}
{"smiles": "CCN1CCN(CCC(=O)Nc2cccc(C)c2)CC1", "Potency": "inconclusive: 5.01 µM [activator, single point]"}
{"smiles": "Cc1ccc(CN2CCSc3ccc(C(=O)Nc4ccc(F)cc4F)cc32)cc1", "Potency": "inconclusive: 6.31 µM [inhibitor, full curve, poor fit]"}
{"smiles": "Cc1cccc(Nc2nnc(SC3CCOC3=O)s2)c1C", "note": "(stereo not drawn)", "Potency": "inactive"}
{"smiles": "O=C(NC1CCCCC1)C(c1ccncc1)N(Cc1ccc2c(c1)OCO2)C(=O)C(F)(F)F", "note": "(stereo not drawn)", "Potency": "inconclusive: 0.708 µM [inhibitor, single point]"}
{"smiles": "CCCCCCn1nc(C(=O)Nc2nc3c(s2)CCCC3)c2ccccc2c1=O", "Potency": "inconclusive: 31.6 µM [inhibitor, single point]"}
{"smiles": "CN(C)S(=O)(=O)c1ccc(Cl)c(NC(=O)COC(=O)c2ccc(O)cc2)c1", "Potency": "inconclusive: 0.316 µM [inhibitor, full curve, poor fit]"}
{"smiles": "COc1ccc(OC)c(-c2csc(NC(=O)C3=NN(c4ccccc4)C(=O)CC3)n2)c1", "Potency": "inconclusive: 35.5 µM [inhibitor, single point]"}
{"smiles": "COc1ccc(N2CCN(C(=O)CN(c3cccc(Br)c3)S(C)(=O)=O)CC2)cc1", "Potency": "inconclusive: 18.3 µM [inhibitor, partial curve]"}
{"smiles": "CN1CCCN=C1/C=C/c1cccs1", "Potency": "inactive"}
{"smiles": "O=C(CN1CC(c2ccccc2)CC1=O)N/N=C/c1cc(Br)ccc1O", "note": "(stereo not drawn)", "Potency": "inconclusive: 8.2 µM [inhibitor, partial curve]"}
{"smiles": "Cc1c(Oc2ccc(C(F)(F)F)cc2[N+](=O)[O-])ccc2c3c(c(=O)oc12)CCC3", "Potency": "inactive"}
{"smiles": "CCOc1cc(C(=S)N2CCOCC2)ccc1OS(=O)(=O)c1ccc(NC(C)=O)cc1", "Potency": "inconclusive: 14.6 µM [inhibitor, single point]"}
{"smiles": "CCCCN(CCCC)S(=O)(=O)c1ccc(OC)c2ncccc12", "Potency": "inconclusive: 12.6 µM [inhibitor, partial curve, poor fit]"}
{"smiles": "CC(=O)N(/N=C1\\Sc2ccccc2C1=O)c1ccccc1C", "Potency": "inconclusive: 5.62 µM [activator, single point]"}
{"smiles": "O=[N+]([O-])c1ccccc1-c1cc(-c2cc(Cl)ccc2O)n[nH]1", "Potency": "inconclusive: 35.5 µM [inhibitor, single point]"}
{"smiles": "CCSc1nc2n(n1)C(c1ccc(CC)cc1)C(C(=O)Nc1ccccc1OC)=C(C)N2", "note": "(stereo not drawn)", "Potency": "inactive"}
{"smiles": "CCC(C(=O)N1CCN(c2cc(Cl)ccc2C)CC1)n1nc(C)n2c(cc3occc32)c1=O", "note": "(stereo not drawn)", "Potency": "inactive"}
